Results published in PubChem BioAssay AID1347423 (Functional Genomics Laboratory (NCATS/FGL), 2020).
The campaign covered roughly 52,000 sequences. About 210 (0.4%) were called active.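 Rule for the calls: active = gene whose silencing raises cell survival under the drug, median off-target-corrected z-score across its silencing RNAs 2 or more; inactive = the rest.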 Some of the results follow.

Assay: Resistance to Poly (ADP-Ribose) Polymerase inhibitor: Gene Identification via Genome-wide siRNA Screen
Conditions: mouse BRCA2 R2336H ES cells, olaparib, CellTiter-Glo viability; hits give high values
How it was run: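 Genome-wide siRNA screen (3 siRNAs/gene, 20 nM) in mouse ES cells carrying hypomorphic BRCA2 R2336H; olaparib 500 nM added 48 h post-transfection, CellTiter-Glo viability 72 h later. Normalized to plate-median negative control; MAD z-scores, gene median, seed-adjusted.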

| Sequence | z-score |
| --- | --- |
| GGGCUCUGUUGUAAUCAUGTT against Olfr366 | inactive: 0.277 |
| GGUGAAGCAUGAGUUUAAATT against Arl8 | inactive: -2.37 |
| GCUCUUGGGAUGGACGAUATT against Hmgcs1 | inactive: 0.618 |
| GGAAGGUGGCCUGAAGCUATT against Mlh1 | inactive: -2.12 |
| CCGACGGAUAGCUUGGAUGTT against Fgb | inactive: -1.42 |
| GCGAAGAAUGCAUCCUAAUTT against Thsd2 | inactive: 1.03 |
| GGUCAGAGAUUAUUGAAUUTT against Ermap | inactive: -0.25 |
| GGCAGAAGUAGAUUUACUCTT against BC052328 | inactive: 0.833 |
| GCAUGGCCCAUGAAGACUUTT against Pir | inactive: -0.247 |
| GGCACACAUCAUGUCUAAATT against Plin | inactive: 0.802 |
| CCAUCAGUUUCAUUAUUGGTT against Fpr-rs6 | inactive: -0.37 |
| CCUUCCAGCUUUAUUAGAGTT against Fzd1 | inactive: -0.291 |
| CCAUUCAAACAGCAUUCAUTT against Itpr1 | inactive: 0.287 |
| GGAACUGCCUUCGACCUGATT against Galm | inactive: -0.0752 |
| GGAAAAGUGACGGUAUCUATT against Lamr1 | inactive: -3.2 |
| GCUUGGUGUAAUCAUGCGCTT against Plfr | inactive: -0.0373 |
| GGUUUUUCUAAGAGAACGGTT against 0610013E23Rik | inactive: -1.96 |
| GGGCAAAACACUGUCUUUCTT against Tlr5 | inactive: -0.871 |
| GGAGCAGAAGAAUGAAGGCTT against Sdbcag84 | inactive: -1.18 |
| UAUGUCCUUGACAUUGGAGTT against 2310014L17Rik | inactive: 0.597 |
| CGUGAUCCCACAGAUGUAGTT against Csrp3 | inactive: -1.81 |
| GGGAGAUGUAUGCUUGCUCTT against Evi2a | inactive: -0.697 |
| CGUUUGUUACUCUUCAGCUTT against Olfr1461 | inactive: -0.0837 |
| CGACUCCAAGGAUUUGACUTT against Anxa10 | inactive: -0.821 |
| GGCAACGGUACCUUUGUGGTT against Crtac1 | inactive: 1.69 |
| GGCCCUUUGAGUUAGAGAATT against Apln | inactive: -0.24 |
| GGACCAGUACAACUUUAAUTT against Prf1 | inactive: -1.41 |
| GGAGGAGCAAAAGUCAGAATT against Palm | inactive: -1.01 |
| CCUUGUUCAAAAAGAUGGCTT against 0610012A11Rik | inactive: -0.213 |

Pulled one by one from above:

| Sequence | z-score |
| --- | --- |
| CCUUCCAGCUUUAUUAGAGTT against Fzd1 | inactive: -0.291 |
| CCAUCAGUUUCAUUAUUGGTT against Fpr-rs6 | inactive: -0.37 |
